According to US8741659B2, “Composition for measuring the binding affinity between nucleic acid and test substance, and use thereof” (Osaka University, priority 2007, dated 2014):
At least one compound was matched to its structure with a doubt left.

Experiments:
[1] = system: RRE; experiment: Evaluation of binding between ethidium bromide and RRE; set-up: species or system HIV-1; settings: 2 μM ethidium bromide, excitation 284 nm
[2] = system: RRE; experiment: Displacement assay using ethidium bromide; assay type: binding, HIV-1; settings: excitation 284 nm

## CC[n+]1c(-c2ccccc2)c2cc(N)ccc2c2ccc(N)cc21 [ethidium bromide]
[1]; RRE 0-7 μM
  fluorescence on addition of RRE: fluorescence increased as the concentration of RRE increased
[1]
  concentration of RRE at which the increase in fluorescence intensity decreased and saturated: 2 µM
[2]; Rev protein up to 4.8 μM
  ultimate reduction of fluorescence intensity: approximately 60%
[2]; at a concentration of 2.4 μM, ethidium bromide and RRE each 2 μM
  fluorescence intensity, % of initial value: approximately 30%
